From the supplement of paper PMC12823440, “Inhibitors supercharge kinase turnover through native proteolytic circuits” (Nature, 2025)
The other results are listed elsewhere or left out. The calls rarely recur for the same compound in another form.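 Kinases, fused to nanoluciferase, were expressed in K562 cells; luminescence was measured every 4 h from 2 to 18 h as percent of control (DMSO = 100%, positive control = 0%). A time point is decreased if signal falls significantly (2 sigma). Hits were called by the authors by a rule that is not shown; the count of time points alone does not decide it.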

Chains of the proteins cited; added tags and fusions are not shown. Lines headed by an entry give the natural chain unless they say otherwise; changes in a name come on top.
UniProt P50750, whole entry: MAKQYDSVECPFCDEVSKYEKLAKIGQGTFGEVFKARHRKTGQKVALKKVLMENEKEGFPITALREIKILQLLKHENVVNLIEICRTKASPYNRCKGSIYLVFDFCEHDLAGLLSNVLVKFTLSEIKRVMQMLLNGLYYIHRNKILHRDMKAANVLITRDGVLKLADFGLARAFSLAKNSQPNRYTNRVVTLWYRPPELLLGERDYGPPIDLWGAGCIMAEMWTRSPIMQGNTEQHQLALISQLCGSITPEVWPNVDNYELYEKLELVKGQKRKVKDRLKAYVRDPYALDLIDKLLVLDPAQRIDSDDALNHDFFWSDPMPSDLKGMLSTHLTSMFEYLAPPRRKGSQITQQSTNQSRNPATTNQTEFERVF
UniProt P48729: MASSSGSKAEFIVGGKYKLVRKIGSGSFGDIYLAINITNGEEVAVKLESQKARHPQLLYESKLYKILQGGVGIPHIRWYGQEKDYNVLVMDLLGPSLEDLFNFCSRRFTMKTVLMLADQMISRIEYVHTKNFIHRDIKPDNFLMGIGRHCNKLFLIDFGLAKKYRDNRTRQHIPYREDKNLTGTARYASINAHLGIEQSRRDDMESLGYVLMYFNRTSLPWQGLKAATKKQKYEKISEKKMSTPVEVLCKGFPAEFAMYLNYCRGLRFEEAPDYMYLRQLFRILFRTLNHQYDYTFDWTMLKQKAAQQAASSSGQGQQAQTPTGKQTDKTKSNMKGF
UniProt P48730: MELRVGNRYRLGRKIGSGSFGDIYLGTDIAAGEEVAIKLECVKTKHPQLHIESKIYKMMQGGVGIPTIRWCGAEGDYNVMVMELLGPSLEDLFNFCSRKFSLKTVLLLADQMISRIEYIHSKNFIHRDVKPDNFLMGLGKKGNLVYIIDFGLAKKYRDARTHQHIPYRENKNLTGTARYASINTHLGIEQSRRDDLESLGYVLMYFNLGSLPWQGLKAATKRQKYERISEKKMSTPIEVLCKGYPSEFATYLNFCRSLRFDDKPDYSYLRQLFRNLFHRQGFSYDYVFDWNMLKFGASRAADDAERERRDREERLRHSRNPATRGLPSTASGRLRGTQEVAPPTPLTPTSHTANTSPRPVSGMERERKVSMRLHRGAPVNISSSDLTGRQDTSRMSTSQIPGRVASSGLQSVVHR
UniProt Q9Y463, whole entry, looked up: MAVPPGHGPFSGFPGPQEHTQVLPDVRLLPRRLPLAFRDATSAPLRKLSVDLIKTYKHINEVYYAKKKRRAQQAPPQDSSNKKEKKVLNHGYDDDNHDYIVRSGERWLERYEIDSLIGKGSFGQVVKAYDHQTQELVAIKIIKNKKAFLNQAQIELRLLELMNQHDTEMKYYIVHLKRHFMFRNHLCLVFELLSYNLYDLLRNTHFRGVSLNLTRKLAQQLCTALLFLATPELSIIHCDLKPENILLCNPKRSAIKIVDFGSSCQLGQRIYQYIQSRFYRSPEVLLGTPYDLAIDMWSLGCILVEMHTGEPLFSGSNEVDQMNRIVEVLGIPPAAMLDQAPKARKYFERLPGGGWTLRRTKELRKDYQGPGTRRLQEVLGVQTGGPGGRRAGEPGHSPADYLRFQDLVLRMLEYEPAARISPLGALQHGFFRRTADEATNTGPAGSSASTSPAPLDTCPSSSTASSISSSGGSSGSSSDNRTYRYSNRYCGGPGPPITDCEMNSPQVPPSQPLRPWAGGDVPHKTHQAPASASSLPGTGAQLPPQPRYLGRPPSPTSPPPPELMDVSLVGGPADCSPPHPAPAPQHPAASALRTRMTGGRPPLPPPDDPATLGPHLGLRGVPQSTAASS
UniProt P29317, whole entry: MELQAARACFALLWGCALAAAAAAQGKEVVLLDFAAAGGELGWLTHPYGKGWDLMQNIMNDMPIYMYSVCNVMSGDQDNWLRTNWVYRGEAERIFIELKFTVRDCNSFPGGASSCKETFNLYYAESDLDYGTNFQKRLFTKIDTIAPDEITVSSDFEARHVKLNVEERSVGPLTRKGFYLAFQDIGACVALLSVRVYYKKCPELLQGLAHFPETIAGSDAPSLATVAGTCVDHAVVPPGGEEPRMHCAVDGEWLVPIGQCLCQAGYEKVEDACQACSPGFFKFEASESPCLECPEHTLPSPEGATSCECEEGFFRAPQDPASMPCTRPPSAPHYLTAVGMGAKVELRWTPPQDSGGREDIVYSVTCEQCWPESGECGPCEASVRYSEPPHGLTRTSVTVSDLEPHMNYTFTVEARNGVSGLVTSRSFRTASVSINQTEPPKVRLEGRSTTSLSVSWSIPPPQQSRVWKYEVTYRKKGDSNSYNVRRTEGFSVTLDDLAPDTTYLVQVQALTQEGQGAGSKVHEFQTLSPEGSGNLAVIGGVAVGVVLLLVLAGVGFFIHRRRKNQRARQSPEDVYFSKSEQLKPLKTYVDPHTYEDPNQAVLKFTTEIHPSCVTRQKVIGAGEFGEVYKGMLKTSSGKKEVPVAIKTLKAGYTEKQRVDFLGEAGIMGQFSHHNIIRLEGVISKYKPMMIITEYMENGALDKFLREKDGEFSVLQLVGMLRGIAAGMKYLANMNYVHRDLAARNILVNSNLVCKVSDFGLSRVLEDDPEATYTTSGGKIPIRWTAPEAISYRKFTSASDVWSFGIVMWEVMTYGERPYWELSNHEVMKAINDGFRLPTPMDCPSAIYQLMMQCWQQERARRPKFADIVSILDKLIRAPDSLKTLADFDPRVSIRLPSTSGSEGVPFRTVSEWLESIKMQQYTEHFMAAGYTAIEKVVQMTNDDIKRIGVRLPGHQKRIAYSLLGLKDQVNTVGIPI
UniProt Q15303, whole entry R711C: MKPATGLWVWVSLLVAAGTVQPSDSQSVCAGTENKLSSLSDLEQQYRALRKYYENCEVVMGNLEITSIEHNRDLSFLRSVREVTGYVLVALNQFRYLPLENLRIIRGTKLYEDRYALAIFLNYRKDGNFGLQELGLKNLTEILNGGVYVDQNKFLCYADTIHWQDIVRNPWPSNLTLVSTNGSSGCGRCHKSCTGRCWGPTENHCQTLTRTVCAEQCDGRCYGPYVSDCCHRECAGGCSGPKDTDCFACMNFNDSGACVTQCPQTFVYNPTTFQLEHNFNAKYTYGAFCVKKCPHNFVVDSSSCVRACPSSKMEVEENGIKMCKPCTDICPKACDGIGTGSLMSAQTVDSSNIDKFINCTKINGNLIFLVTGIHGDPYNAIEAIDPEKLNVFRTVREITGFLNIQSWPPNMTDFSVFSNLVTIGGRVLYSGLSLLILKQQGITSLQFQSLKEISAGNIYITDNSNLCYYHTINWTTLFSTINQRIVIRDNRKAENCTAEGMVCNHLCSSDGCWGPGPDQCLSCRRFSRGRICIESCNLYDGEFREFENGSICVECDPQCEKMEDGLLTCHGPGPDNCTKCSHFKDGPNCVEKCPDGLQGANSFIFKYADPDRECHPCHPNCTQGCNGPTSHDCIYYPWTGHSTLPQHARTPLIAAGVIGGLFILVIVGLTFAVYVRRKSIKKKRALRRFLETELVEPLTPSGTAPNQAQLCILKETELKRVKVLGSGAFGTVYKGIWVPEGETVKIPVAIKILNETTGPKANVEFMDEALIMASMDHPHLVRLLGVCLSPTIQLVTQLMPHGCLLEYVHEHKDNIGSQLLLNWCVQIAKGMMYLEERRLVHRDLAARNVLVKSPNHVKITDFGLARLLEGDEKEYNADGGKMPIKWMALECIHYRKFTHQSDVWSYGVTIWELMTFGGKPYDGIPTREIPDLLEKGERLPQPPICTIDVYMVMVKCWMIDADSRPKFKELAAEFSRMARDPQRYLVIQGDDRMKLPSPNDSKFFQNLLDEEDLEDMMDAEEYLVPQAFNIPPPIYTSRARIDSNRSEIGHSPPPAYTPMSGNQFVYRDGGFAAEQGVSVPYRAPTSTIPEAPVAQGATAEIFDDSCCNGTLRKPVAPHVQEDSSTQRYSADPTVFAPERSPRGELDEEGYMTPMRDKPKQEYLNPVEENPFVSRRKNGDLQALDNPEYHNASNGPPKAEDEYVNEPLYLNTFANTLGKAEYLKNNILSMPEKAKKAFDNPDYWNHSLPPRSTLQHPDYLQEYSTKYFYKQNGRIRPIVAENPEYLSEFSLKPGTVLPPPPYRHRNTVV
UniProt O96017, whole entry: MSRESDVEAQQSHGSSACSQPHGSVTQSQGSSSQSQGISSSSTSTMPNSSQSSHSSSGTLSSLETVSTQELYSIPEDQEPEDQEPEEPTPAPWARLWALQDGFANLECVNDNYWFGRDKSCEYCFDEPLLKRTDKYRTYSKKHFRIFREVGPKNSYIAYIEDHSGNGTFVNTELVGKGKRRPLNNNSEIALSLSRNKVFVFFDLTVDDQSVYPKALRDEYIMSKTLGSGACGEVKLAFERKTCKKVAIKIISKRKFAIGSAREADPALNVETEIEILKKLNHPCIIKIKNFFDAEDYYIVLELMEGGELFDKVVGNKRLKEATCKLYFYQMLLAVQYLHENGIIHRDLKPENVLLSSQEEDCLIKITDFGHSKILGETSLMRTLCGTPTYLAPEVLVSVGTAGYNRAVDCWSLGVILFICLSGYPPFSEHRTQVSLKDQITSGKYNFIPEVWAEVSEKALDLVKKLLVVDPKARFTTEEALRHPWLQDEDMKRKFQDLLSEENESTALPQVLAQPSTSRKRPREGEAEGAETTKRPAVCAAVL
UniProt P07333, whole entry: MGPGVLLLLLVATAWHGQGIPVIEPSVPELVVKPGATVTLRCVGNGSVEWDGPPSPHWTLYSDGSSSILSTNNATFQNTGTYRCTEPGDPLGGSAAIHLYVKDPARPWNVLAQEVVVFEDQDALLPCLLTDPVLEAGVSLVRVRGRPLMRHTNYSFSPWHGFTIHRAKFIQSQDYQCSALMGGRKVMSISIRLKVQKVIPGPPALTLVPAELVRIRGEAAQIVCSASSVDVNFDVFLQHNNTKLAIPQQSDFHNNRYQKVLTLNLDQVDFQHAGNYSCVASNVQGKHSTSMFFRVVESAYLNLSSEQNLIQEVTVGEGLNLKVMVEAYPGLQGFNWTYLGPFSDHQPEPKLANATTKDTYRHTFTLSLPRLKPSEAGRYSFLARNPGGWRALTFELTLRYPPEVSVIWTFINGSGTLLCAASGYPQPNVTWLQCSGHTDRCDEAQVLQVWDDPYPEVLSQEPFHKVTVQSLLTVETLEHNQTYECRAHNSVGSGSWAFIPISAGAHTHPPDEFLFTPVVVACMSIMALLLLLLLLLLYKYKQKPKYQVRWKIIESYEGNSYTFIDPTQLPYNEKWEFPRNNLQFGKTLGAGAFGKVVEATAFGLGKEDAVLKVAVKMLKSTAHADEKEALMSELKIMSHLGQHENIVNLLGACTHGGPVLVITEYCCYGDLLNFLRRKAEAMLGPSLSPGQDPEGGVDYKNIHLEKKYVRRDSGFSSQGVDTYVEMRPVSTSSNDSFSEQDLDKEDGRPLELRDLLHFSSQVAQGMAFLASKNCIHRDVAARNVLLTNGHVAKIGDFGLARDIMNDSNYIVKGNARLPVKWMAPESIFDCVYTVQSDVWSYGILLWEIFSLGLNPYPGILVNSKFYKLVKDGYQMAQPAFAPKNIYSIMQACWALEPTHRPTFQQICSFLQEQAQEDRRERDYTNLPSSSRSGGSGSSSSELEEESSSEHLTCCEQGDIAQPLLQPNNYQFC
UniProt Q08345: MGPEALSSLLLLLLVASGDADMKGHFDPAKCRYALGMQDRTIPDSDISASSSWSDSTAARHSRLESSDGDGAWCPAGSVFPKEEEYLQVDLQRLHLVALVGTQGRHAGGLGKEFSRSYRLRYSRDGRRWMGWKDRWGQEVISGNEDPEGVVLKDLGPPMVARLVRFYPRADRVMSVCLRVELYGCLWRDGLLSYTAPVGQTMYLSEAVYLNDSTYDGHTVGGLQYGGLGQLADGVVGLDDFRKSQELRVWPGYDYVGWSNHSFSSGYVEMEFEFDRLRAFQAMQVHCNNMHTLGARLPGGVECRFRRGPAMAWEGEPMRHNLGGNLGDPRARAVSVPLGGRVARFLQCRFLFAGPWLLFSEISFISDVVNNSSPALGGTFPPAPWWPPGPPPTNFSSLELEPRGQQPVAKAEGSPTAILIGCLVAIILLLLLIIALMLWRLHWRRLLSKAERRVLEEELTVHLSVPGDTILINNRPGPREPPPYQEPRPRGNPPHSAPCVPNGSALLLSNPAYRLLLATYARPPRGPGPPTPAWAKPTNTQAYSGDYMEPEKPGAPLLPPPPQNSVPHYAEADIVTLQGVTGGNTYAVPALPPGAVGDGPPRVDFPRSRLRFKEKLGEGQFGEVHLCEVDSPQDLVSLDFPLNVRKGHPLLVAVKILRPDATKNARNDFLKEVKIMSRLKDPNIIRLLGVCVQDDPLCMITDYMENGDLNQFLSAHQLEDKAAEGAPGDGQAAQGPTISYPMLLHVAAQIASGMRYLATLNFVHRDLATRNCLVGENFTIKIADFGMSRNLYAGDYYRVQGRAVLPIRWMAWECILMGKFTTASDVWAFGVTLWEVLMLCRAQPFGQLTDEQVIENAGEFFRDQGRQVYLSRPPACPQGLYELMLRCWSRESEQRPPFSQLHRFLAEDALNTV

How the values were obtained:
Assay in all cases: kinase-Nluc reporter destabilization hit call (1 = scored as downregulated) (binary); higher = compound decreases kinase abundance
CDK7 = CDK7 (UniProt P50613); details: K562, 2-18 h
CDK9 = CDK9 (UniProt P50750); details: K562, 2-18 h
CSK = CSK (UniProt P41240); details: K562, 2-18 h
CSNK1A1 = CSNK1A1 (UniProt P48729); details: K562, 2-18 h
CSNK1D = CSNK1D (UniProt P48730); details: K562, 2-18 h
DYRK1B = DYRK1B (UniProt Q9Y463); details: K562, 2-18 h
DYRK2 = DYRK2 (UniProt Q92630); details: K562, 2-18 h
EGFR = EGFR (UniProt P00533); details: 2.5 µM; K562; 2-18 h
EGFR_G719S = EGFR_G719S (UniProt P00533); details: 2.5 µM; K562; 2-18 h
EGFR_G719S_T790M = EGFR_G719S_T790M (UniProt P00533); details: 2.5 µM; K562; 2-18 h
EGFR_L718V = EGFR_L718V (UniProt P00533); details: 2.5 µM; K562; 2-18 h
EGFR_L858R = EGFR_L858R (UniProt P00533); details: 2.5 µM; K562; 2-18 h
EGFR_L861Q = EGFR_L861Q (UniProt P00533); details: 2.5 µM; K562; 2-18 h
EGFR_T790M = EGFR_T790M (UniProt P00533); details: 2.5 µM; K562; 2-18 h
EPHA2 = EPHA2 (UniProt P29317); details: K562, 2-18 h
ERBB3 = ERBB3 (UniProt P21860); details: K562, 2-18 h
[1] = molecular target: ERBB4_R711C (clone: ERBB4_mut) (UniProt Q15303); details: K562, 2-18 h
CHEK2 = CHEK2 (UniProt O96017); details: K562, 2-18 h
CSF1R = CSF1R (UniProt P07333); details: K562, 2-18 h
DDR1 = DDR1 (UniProt Q08345); details: K562, 2-18 h

Measured: kinase-Nluc reporter destabilization hit call

CC(=O)c1c(C)c2cnc(Nc3ccc(N4CCN(C(=O)CCCCCC(=O)N[C@H](C(=O)N5C[C@H](O)C[C@H]5C(=O)NCc5ccc(-c6scnc6C)cc5)C(C)(C)C)CC4)cn3)nc2n(C2CCCC2)c1=O
inactive: CDK7; 2.5 µM 0 | CDK9; 2.5 µM 0 | CSK; 2.5 µM 0 | CSNK1A1; 2.5 µM 0 | CSNK1D; 2.5 µM 0 | DYRK1B; 2.5 µM 0 | DYRK2; 2.5 µM 0 | EGFR 0 | EGFR_G719S 0 | EGFR_G719S_T790M 0 | EGFR_L718V 0 | EGFR_L858R 0 | EGFR_L861Q 0 | EGFR_T790M 0 | EPHA2; 2.5 µM 0 | ERBB3; 2.5 µM 0 | [1]; 2.5 µM 0

COc1cc2ncnc(Nc3ccc(F)c(Cl)c3)c2cc1OCCCN1CCOCC1 [Gefitinib]
inactive: CDK7; 10 µM 0 | CDK9; 10 µM 0 | CHEK2; 10 µM 0 | CSF1R; 10 µM 0 | CSK; 10 µM 0 | CSNK1A1; 10 µM 0 | CSNK1D; 10 µM 0 | DDR1; 10 µM 0 | DYRK1B; 10 µM 0 | DYRK2; 10 µM 0 | EPHA2; 10 µM 0 | ERBB3; 10 µM 0 | [1]; 10 µM 0

COc1nccc(-c2c(-c3ccc(F)cc3)ncn2C2CCNCC2)n1
inactive: CDK7; 10 µM 0 | CDK9; 10 µM 0 | CHEK2; 10 µM 0 | CSF1R; 10 µM 0 | CSK; 10 µM 0 | CSNK1A1; 10 µM 0 | CSNK1D; 10 µM 0 | DDR1; 10 µM 0 | DYRK1B; 10 µM 0 | DYRK2; 10 µM 0 | EPHA2; 10 µM 0 | ERBB3; 10 µM 0 | [1]; 10 µM 0

O=C1NCCc2[nH]c(-c3ccncc3)cc21
inactive: CDK7; 2.5 µM 0 | CDK9; 2.5 µM 0 | CHEK2; 2.5 µM 0 | CSF1R; 2.5 µM 0 | CSK; 2.5 µM 0 | CSNK1D; 2.5 µM 0 | DDR1; 2.5 µM 0 | DYRK1B; 2.5 µM 0 | DYRK2; 2.5 µM 0 | EPHA2; 2.5 µM 0 | ERBB3; 2.5 µM 0 | [1]; 2.5 µM 0

CN1CCN(c2nc(C3=C(c4c[nH]c5ccccc45)C(=O)NC3=O)c3ccccc3n2)CC1 [Sotrastaurin]
inactive: CDK7; 2.5 µM 0 | CDK9; 2.5 µM 0 | CHEK2; 2.5 µM 0 | CSF1R; 2.5 µM 0 | CSK; 2.5 µM 0 | CSNK1A1; 2.5 µM 0 | CSNK1D; 2.5 µM 0 | DDR1; 2.5 µM 0 | DYRK1B; 2.5 µM 0 | DYRK2; 2.5 µM 0 | EPHA2; 2.5 µM 0 | ERBB3; 2.5 µM 0 | [1]; 2.5 µM 0

CCN(CC)CCNC(=O)c1c(C)[nH]c(/C=C2\C(=O)Nc3ccc(F)cc32)c1C [Sunitinib]
inactive: CDK7; 2.5 µM 0 | CDK9; 2.5 µM 0 | CHEK2; 2.5 µM 0 | CSF1R; 2.5 µM 0 | CSK; 2.5 µM 0 | CSNK1D; 2.5 µM 0 | DDR1; 2.5 µM 0 | DYRK1B; 2.5 µM 0 | DYRK2; 2.5 µM 0 | EPHA2; 2.5 µM 0 | ERBB3; 2.5 µM 0 | [1]; 2.5 µM 0

Pulled by compound from above, 2 records:
COc1cc2ncnc(Nc3ccc(F)c(Cl)c3)c2cc1OCCCN1CCOCC1 [Gefitinib]
inactive: CDK7; 10 µM 0 | CDK9; 10 µM 0 | CHEK2; 10 µM 0 | CSF1R; 10 µM 0 | CSK; 10 µM 0 | CSNK1A1; 10 µM 0 | CSNK1D; 10 µM 0 | DDR1; 10 µM 0 | DYRK1B; 10 µM 0 | DYRK2; 10 µM 0 | EPHA2; 10 µM 0 | ERBB3; 10 µM 0 | [1]; 10 µM 0

CC(=O)c1c(C)c2cnc(Nc3ccc(N4CCN(C(=O)CCCCCC(=O)N[C@H](C(=O)N5C[C@H](O)C[C@H]5C(=O)NCc5ccc(-c6scnc6C)cc5)C(C)(C)C)CC4)cn3)nc2n(C2CCCC2)c1=O
inactive: CDK7; 2.5 µM 0 | CDK9; 2.5 µM 0 | CSK; 2.5 µM 0 | CSNK1A1; 2.5 µM 0 | CSNK1D; 2.5 µM 0 | DYRK1B; 2.5 µM 0 | DYRK2; 2.5 µM 0 | EGFR 0 | EGFR_G719S 0 | EGFR_G719S_T790M 0 | EGFR_L718V 0 | EGFR_L858R 0 | EGFR_L861Q 0 | EGFR_T790M 0 | EPHA2; 2.5 µM 0 | ERBB3; 2.5 µM 0 | [1]; 2.5 µM 0

Carrying on:

O=C(Nc1cccc(Cl)c1)Nc1ncc(CCNc2ncnc3ccsc23)s1 [SNS-314 (mesylate)]
inactive: CDK7; 10 µM 0 | CDK9; 10 µM 0 | CHEK2; 10 µM 0 | CSK; 10 µM 0 | CSNK1A1; 10 µM 0 | CSNK1D; 10 µM 0 | DDR1; 10 µM 0 | DYRK1B; 10 µM 0 | DYRK2; 10 µM 0 | EPHA2; 10 µM 0 | ERBB3; 10 µM 0 | [1]; 10 µM 0

Nc1ncnc2n[nH]c(-c3ccc(Oc4ccccc4)cc3)c12 [Ibrutinib deacryloylpiperidine]
inactive: CDK7; 10 µM 0 | CDK9; 10 µM 0 | CHEK2; 10 µM 0 | CSF1R; 10 µM 0 | CSK; 10 µM 0 | CSNK1A1; 10 µM 0 | CSNK1D; 10 µM 0 | DDR1; 10 µM 0 | DYRK1B; 10 µM 0 | DYRK2; 10 µM 0 | EPHA2; 10 µM 0 | ERBB3; 10 µM 0 | [1]; 10 µM 0

COc1cc2/c(=N/c3ccc(Br)cc3F)nc[nH]c2cc1OCC1CCN(C)CC1 [Vandetanib]
inactive: CDK7; 2.5 µM 0 | CHEK2; 2.5 µM 0 | CSK; 2.5 µM 0 | CSNK1A1; 2.5 µM 0 | CSNK1D; 2.5 µM 0 | DDR1; 2.5 µM 0 | DYRK1B; 2.5 µM 0 | DYRK2; 2.5 µM 0 | EPHA2; 2.5 µM 0 | ERBB3; 2.5 µM 0 | [1]; 2.5 µM 0
